Assay results reported in patent US20260317299A1, “PIKFYVE PROTEIN KINASE DEGRADATION AGENT AND USE THEREOF” (Shanghai Institute of Organic Chemistry, Chinese Academy of …, priority 2023, published 2026).
The match of structure and compound is tentative.

The chains behind the UniProt entries cited, without tags or fusion partners.
UniProt Q9Y2I7, whole entry: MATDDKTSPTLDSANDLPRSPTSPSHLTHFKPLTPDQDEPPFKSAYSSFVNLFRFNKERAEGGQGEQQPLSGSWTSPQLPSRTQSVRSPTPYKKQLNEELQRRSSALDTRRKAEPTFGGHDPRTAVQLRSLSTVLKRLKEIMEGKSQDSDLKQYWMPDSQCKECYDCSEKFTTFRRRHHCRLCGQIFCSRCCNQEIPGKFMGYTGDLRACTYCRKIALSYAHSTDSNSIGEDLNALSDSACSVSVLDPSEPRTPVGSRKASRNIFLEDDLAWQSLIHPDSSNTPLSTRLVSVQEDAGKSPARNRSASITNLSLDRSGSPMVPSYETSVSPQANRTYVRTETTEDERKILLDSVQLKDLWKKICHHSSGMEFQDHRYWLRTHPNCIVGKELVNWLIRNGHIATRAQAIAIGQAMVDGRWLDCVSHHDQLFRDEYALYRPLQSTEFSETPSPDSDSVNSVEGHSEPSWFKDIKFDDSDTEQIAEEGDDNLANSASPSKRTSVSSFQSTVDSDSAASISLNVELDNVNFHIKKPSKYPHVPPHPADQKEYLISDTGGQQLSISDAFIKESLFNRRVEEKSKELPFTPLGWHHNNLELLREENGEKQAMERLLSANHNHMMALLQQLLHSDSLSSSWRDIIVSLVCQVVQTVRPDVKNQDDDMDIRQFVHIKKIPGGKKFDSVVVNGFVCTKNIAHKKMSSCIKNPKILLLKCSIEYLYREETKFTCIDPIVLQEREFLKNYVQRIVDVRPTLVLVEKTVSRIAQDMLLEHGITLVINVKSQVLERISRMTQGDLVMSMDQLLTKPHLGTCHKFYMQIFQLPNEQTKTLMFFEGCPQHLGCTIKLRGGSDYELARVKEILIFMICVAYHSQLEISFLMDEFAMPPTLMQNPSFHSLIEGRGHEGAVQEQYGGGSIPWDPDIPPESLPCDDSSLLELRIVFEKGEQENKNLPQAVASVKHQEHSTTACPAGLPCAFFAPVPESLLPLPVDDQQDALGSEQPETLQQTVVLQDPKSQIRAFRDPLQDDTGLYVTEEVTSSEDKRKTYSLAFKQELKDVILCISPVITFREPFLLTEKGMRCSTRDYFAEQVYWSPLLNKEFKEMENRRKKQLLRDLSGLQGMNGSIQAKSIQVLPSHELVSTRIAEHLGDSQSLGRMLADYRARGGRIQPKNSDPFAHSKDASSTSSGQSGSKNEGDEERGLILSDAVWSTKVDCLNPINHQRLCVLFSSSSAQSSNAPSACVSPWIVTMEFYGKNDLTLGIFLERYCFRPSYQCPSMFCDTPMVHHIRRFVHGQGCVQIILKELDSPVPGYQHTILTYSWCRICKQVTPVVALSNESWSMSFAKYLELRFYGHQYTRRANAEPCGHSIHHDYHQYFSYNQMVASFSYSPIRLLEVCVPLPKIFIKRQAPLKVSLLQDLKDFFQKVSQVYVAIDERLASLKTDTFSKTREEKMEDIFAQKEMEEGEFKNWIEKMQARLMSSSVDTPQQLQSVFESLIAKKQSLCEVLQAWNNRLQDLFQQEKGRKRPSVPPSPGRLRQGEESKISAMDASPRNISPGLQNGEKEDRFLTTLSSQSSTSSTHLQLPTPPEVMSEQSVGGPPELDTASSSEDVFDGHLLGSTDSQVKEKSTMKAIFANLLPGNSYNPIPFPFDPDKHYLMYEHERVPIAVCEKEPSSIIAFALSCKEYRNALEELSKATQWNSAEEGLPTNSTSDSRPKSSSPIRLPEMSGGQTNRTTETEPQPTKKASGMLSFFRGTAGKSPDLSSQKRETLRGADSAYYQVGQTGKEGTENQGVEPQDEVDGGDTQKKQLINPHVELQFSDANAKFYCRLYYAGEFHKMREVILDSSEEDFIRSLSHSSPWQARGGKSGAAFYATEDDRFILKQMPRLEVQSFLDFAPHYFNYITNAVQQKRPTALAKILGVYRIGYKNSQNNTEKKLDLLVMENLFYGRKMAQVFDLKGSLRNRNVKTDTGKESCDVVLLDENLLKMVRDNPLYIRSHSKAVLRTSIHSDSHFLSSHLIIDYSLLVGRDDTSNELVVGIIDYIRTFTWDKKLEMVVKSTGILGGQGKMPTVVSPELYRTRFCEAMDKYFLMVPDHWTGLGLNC

Biological target: PIKfyve (Homo sapiens, UniProt Q9Y2I7)
Assay: Degradation of PIKfyve proteins in VCaP tumor cells (24 h, Western blot)
Details: read-out: DC50 (concentration that achieves 50% degradation activity), 37° C., compared with DMSO control, WB
Experimental: Method: 200 μL of cells at a density of 5×10^6 cells/ml were inoculated into a 6-well plate, and then different concentrations of drugs were added. The cells were treated at 37° C. for 24 h. The […] was collected and washed with PBS twice. Then, 100-200 μL of 1×SDS lysate was added, and the cell lysate was collected into a centrifuge tube. The cells were disrupted ultrasonically for 10-20 sec, and boiled for 10 min. Protein samples were subjected to SDS-PAGE electrophoresis at a voltage of 90 V, transferred to PVDF membranes at 110 V, blocked with 5% BSA for 4 h, incubated with primary antibodies (PIKfyve, GAPDH) at 4° C. overnight, and incubated with secondary antibodies (anti-Rabbit IgG or anti-Mouse IgG) at room temperature. The membranes were washed with TBST buffer, developed with an ECL developing solution, and then imaged to obtain protein band signals, with single-concentration WB results as shown in FIG. 1. Compared with the DMSO control group, the concentration that achieves 50% degradation activity is defined as DC50.

Cc1cccc(/C=N/Nc2cc(N3CCOCC3)nc(OCCc3ccc(NC(=O)CCCCCNC(=O)COc4cc(-c5scnc5C)ccc4CNC(=O)[C@@H]4C[C@@H](O)CN4C(=O)[C@@H](NC(=O)C4(F)CC4)C(C)(C)C)cc3)n2)c1 showed a DC50 of 1 to 100 nM.
